At least one structure is not confirmed: it was looked up by name or label, or the drawing left a doubt.
Legend:
Type in all cases: in vivo
transcription factor SP3 = experiment: AFFYMETRIX chicken genome array, oviduct RNA of hens fed selenium: SP3; details: 0.3 ppm selenium in diet, over forty weeks, relative to selenium-deficient hens
[1] = test system: Glutathione Peroxidases (GSH-PX) genes; experiment: AFFYMETRIX chicken genome array, oviduct RNA of hens fed selenium: GSH-PX genes; details: 0.3 ppm selenium in diet, over forty weeks, relative to selenium deficient hens
[2] = test system: serum and glucocorticoid inducible-protein kinase, sgk; experiment: AFFYMETRIX chicken genome array, oviduct RNA of hens fed selenium: Sgk; details: 0.3 ppm selenium in diet, over forty weeks, relative to selenium-deficient hens

O=[Se](O)O [sodium selenite]
expression of SP3 in oviduct (transcription factor SP3): did not induce significant expression | expression of two Glutathione Peroxidases (GSH-PX) genes in oviduct [1]: significant induction of only Glutathione Peroxidase 3 | expression of Sgk in oviduct [2]: did not induce significant expression

From US8846111B2, “Compositions and methods for establishing and/or maintaining pregnancy” (Alltech, Inc., priority 2007, dated 2014)
